Experimental data taken from paper PMC12288454, “Functional consequences of genetic variations in DgoR, a GntR/FadR family transcriptional repressor of D-galactonate metabolism in Escherichia coli” (Journal of Bacteriology, 2025).
A negative result means that nothing was seen under these conditions.

Experiments:
Assay in all cases: EMSA
DgoR R71C = DgoR R71C (UniProt P31460); details: 6.4 mM D-galactonate, 1 uM protein, DNA completely released; 10 nM DNA, 50 mM Tris pH 8.5, 10 mM MgCl2, 265 mM NaCl, 1 mM PMSF, 12% glycerol, 2 mM DTT, 1 ug herring sperm DNA per 20 uL, 27 C 30 min; recombinant protein; residues 1-229; protein details: C-terminal 6xHis; label: 5'-Cy5 on strand 1
DgoR WT = DgoR WT (UniProt P31460); details: 1.6 mM D-galactonate, 1 uM protein, binding completely abrogated; 10 nM DNA, 50 mM Tris pH 8.5, 10 mM MgCl2, 265 mM NaCl, 1 mM PMSF, 12% glycerol, 2 mM DTT, 1 ug herring sperm DNA per 20 uL, 27 C 30 min; recombinant protein; residues 1-229; protein details: C-terminal 6xHis; label: 5'-Cy5 on strand 1
DgoR A152E = DgoR A152E (UniProt P31460); details: 1.6 mM D-galactonate, 3.5 uM protein, binding completely abrogated; 10 nM DNA, 50 mM Tris pH 8.5, 10 mM MgCl2, 265 mM NaCl, 1 mM PMSF, 12% glycerol, 2 mM DTT, 1 ug herring sperm DNA per 20 uL, 27 C 30 min; recombinant protein; residues 1-229; protein details: C-terminal 6xHis; label: 5'-Cy5 on strand 1

Measured: binding result

GTGATCTAAATTGTAGTACAACAATATAAGTTTGTACTACATTACACGCACG (double strand) [dgo promoter probe GA149/GA150]
no binding: all assays above
